The list shows a part of the results.
Biological target: T1, OsSMF1 (Oryza sativa, UniProt Q6ZLB0 1-436)
T1 sequence: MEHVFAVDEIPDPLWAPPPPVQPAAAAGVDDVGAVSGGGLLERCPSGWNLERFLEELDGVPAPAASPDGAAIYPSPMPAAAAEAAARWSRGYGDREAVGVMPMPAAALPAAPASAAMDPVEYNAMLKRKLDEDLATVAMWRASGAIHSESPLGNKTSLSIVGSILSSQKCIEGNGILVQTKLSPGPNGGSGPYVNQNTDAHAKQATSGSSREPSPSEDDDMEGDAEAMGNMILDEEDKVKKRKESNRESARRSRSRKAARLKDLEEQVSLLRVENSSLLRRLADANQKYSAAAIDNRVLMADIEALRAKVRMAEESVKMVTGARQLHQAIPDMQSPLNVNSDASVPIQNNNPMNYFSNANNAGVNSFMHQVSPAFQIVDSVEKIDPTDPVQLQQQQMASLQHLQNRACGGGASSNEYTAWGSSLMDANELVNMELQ
Assay: protein-binding microarray (RPBM); PBS, 2% BSA, 51.3 ng/ul salmon testes DNA, 50 uM zinc acetate, 200 nM TF, 25 C, 1 h; high values mean tight binding
Conditions: protein: recombinant; tags: N-terminal polyhistidine and DsRed monomer fusion (pET32a); chain copies: 2; label: CyDye5-dUTP incorporated in the synthesized complementary strand; 3' TTTTT single-stranded linker to array surface; dsDNA, one strand shown
Method in brief: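 Transcription factors were made in E. coli BL21-CodonPlus as N-terminal fusions to a polyhistidine tag and DsRed, then purified on Ni–NTA. After primer extension with Cy5-dUTP and blocking with 2% BSA, a custom Agilent array was exposed for 1 h at 25 °C to 200 nM protein in PBS, 2% BSA, salmon testes DNA and 50 µM zinc acetate. Washed arrays were scanned on an Axon 4000B, and the binding signal is per-feature fluorescence intensity in arbitrary units.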

Row | Sequence | binding signal
1 | GAGTGGGGACCAGATGAGCGAACAGGCGTGGACCCCAATGCGGAGTCACCTAGTGCAG | 3240 fluorescence intensity (a.u.)
2 | ACTCCAAAAGCACCAGAAGTTTGTCATGGCTGAGTCATGACGGAGTCACCTAGTGCAG | 10200 fluorescence intensity (a.u.)
3 | AGCAACCAAATCTTCCCAATTCTCACTTGCTCCTAGATACCGGAGTCACCTAGTGCAG | 3840 fluorescence intensity (a.u.)
4 | CATCAAAATTTTCCTACACACACAACGTTCCAATTTTAATCGGAGTCACCTAGTGCAG | 37400 fluorescence intensity (a.u.)
5 | GACATCAATGACACTGGCGCCGACACCCTCAACCCCTCGTCGGAGTCACCTAGTGCAG | 4060 fluorescence intensity (a.u.)
6 | GTTTTACATATTACAGTAGTGGGCGAGATGCTGTTGCAATCGGAGTCACCTAGTGCAG | 26700 fluorescence intensity (a.u.)
7 | GGCAATGGCTGATATGGGAAGGTAGGGGAGAAGGGTATAGCGGAGTCACCTAGTGCAG | 3400 fluorescence intensity (a.u.)
8 | ACGCGTGCCGAATGCCGTGGCGCGACGCGACGCGCCCAATCGGAGTCACCTAGTGCAG | 3390 fluorescence intensity (a.u.)
9 | AAACAGCTATTGCCGTCATATGTGCCACTTGCTCTCGTGGCGGAGTCACCTAGTGCAG | 5420 fluorescence intensity (a.u.)
10 | TACATTTCTTTGACAAAACTTTTATAACCAGCTGATGTGGCGGAGTCACCTAGTGCAG | 11400 fluorescence intensity (a.u.)
11 | TGTGGGGTGGCGATGAAGGTTGGCATCGCTGTCGTGGCTGCGGAGTCACCTAGTGCAG | 5190 fluorescence intensity (a.u.)
12 | ACCAAAATGAACTGGCCTGTCGTTTGCACCAGTGTATGTCCGGAGTCACCTAGTGCAG | 3340 fluorescence intensity (a.u.)
13 | CGGTGGGAGTGGGATAAAGGGACGTGGGGCGAGGTAGACCCGGAGTCACCTAGTGCAG | 3320 fluorescence intensity (a.u.)
14 | ACTACCATTACAAGCACTGACGTGTGGAACAATAGGAGTACGGAGTCACCTAGTGCAG | 4820 fluorescence intensity (a.u.)
15 | ATATAACCCGCTGCTCTTCTCTCTCATCTTTTATCTTATTCGGAGTCACCTAGTGCAG | 21400 fluorescence intensity (a.u.)
16 | TTTGAGGGACCGAAAGAGAACTTATTCCCCGTGTAGCGCGCGGAGTCACCTAGTGCAG | 3290 fluorescence intensity (a.u.)
17 | AGAACCGAAGGCGGTGGGCCCCACCCCGTCAGCCTCTCTCCGGAGTCACCTAGTGCAG | 3560 fluorescence intensity (a.u.)
18 | GCCAAACTTCTTCCTTTACCAACTTCATGACGTGCCATATCGGAGTCACCTAGTGCAG | 11000 fluorescence intensity (a.u.)
19 | TTGTTATTACACATTGATGAGACATCAAACTATGCTGACTCGGAGTCACCTAGTGCAG | 5220 fluorescence intensity (a.u.)
20 | ATGGCGTGTCAGATTTGCTAGCGTGATGTGCATTGATTACCGGAGTCACCTAGTGCAG | 3480 fluorescence intensity (a.u.)
21 | GACGACGGCGTGACGATGCAGATGTTCGAGGAGTGGATGGCGGAGTCACCTAGTGCAG | 3350 fluorescence intensity (a.u.)

Retrieved one by one from the entries so far (4):
Row | Sequence | binding signal
14 | ACTACCATTACAAGCACTGACGTGTGGAACAATAGGAGTACGGAGTCACCTAGTGCAG | 4820 fluorescence intensity (a.u.)
8 | ACGCGTGCCGAATGCCGTGGCGCGACGCGACGCGCCCAATCGGAGTCACCTAGTGCAG | 3390 fluorescence intensity (a.u.)
12 | ACCAAAATGAACTGGCCTGTCGTTTGCACCAGTGTATGTCCGGAGTCACCTAGTGCAG | 3340 fluorescence intensity (a.u.)
16 | TTTGAGGGACCGAAAGAGAACTTATTCCCCGTGTAGCGCGCGGAGTCACCTAGTGCAG | 3290 fluorescence intensity (a.u.)

Remaining list, next part

Row | Sequence | binding signal
22 | CAACTTCTAAAGCTAAATTTAGGAGTAGGAGTTTTACCAACGGAGTCACCTAGTGCAG | 4490 fluorescence intensity (a.u.)
23 | AGTTATCCTGTTCCCACGTAATGCTGTTATGTAGATTTTCCGGAGTCACCTAGTGCAG | 5590 fluorescence intensity (a.u.)
24 | CCATACAATGCCGCTGTACTTCATTAAGCCTCGTGAAAACCGGAGTCACCTAGTGCAG | 3530 fluorescence intensity (a.u.)
25 | GCAACCTACCTAAACAATGTTATGTATGTGGCTCCAGCAGCGGAGTCACCTAGTGCAG | 3180 fluorescence intensity (a.u.)
26 | TGCGGAATAAAATAAATATATGATGCATCATGATTATAGCCGGAGTCACCTAGTGCAG | 3730 fluorescence intensity (a.u.)
27 | CTTGTCAGCGTACGGACCCTGACGTTAACAAACGATCGCGCGGAGTCACCTAGTGCAG | 3560 fluorescence intensity (a.u.)
28 | CGACATCATCAAGAGTAAGCCACGTACCGCCACTCTCTCGCGGAGTCACCTAGTGCAG | 3340 fluorescence intensity (a.u.)
29 | GTAGAACTAGACGACCTCCGTAGTATAGCACGAATCTCAACGGAGTCACCTAGTGCAG | 4150 fluorescence intensity (a.u.)
30 | TGGCTCGCAAAATGCCACATAATTGGCTCTGGAAACCGAGCGGAGTCACCTAGTGCAG | 3450 fluorescence intensity (a.u.)
31 | CTTCCCCGGCAGCGCTCCCGCCGCCACGTTGCCACTGTTGCGGAGTCACCTAGTGCAG | 9560 fluorescence intensity (a.u.)
32 | CCGACGAGTGGTGTTTTCTGGTCACCTGCGGCAGCCGTCGCGGAGTCACCTAGTGCAG | 3380 fluorescence intensity (a.u.)
33 | TGGGGCCCACGCTGACTCACCCGCCACGTCAGACAAAACCCGGAGTCACCTAGTGCAG | 20900 fluorescence intensity (a.u.)
34 | AACTTGTCTTCTGCTTATGTCAGCATTATAGGCCTATAGGCGGAGTCACCTAGTGCAG | 12200 fluorescence intensity (a.u.)
35 | AGTCCACTCTTCACAGCAGGGCGAGAAGAGAAGTAGGAGTCGGAGTCACCTAGTGCAG | 3160 fluorescence intensity (a.u.)
36 | CTGAATCCCGCCCGGTGTTTGAGTGCCTTCGCCTATGCTGCGGAGTCACCTAGTGCAG | 3230 fluorescence intensity (a.u.)
37 | CGCCGAGGAAGCGGCGGCGAACAACGCTCGGACCGCGTCACGGAGTCACCTAGTGCAG | 3620 fluorescence intensity (a.u.)
38 | AGAGATGGTAGTGGTAAAGCGGAGGAGGGGTGGGGTGTTGCGGAGTCACCTAGTGCAG | 3760 fluorescence intensity (a.u.)
39 | TTGCTGTTCTTCCAATCCACTCCTCTTGTTTGTGGCAAAGCGGAGTCACCTAGTGCAG | 21100 fluorescence intensity (a.u.)
40 | CAATATATGCGTTACCGAGCAGCCACGTCTCATGAACACACGGAGTCACCTAGTGCAG | 3760 fluorescence intensity (a.u.)
41 | CTGAGAATAGGACGATGACCCGTCGCTCTGGGAACTAGCCCGGAGTCACCTAGTGCAG | 3300 fluorescence intensity (a.u.)
42 | GCTCTGCATGAGTTTCGCGCACACGCACGCATCGATCGGCCGGAGTCACCTAGTGCAG | 3630 fluorescence intensity (a.u.)

— article PMC7819943, “Rice protein-binding microarrays: a tool to detect cis-acting elements near promoter regions in rice”
